Reference: the supplement of paper PMC10849652
The list shows a part of the results.

Chains of the proteins cited; added tags and fusions are not shown. Lines headed by an entry give the natural chain unless they say otherwise; changes in a name come on top.
UniProt Q86WA8: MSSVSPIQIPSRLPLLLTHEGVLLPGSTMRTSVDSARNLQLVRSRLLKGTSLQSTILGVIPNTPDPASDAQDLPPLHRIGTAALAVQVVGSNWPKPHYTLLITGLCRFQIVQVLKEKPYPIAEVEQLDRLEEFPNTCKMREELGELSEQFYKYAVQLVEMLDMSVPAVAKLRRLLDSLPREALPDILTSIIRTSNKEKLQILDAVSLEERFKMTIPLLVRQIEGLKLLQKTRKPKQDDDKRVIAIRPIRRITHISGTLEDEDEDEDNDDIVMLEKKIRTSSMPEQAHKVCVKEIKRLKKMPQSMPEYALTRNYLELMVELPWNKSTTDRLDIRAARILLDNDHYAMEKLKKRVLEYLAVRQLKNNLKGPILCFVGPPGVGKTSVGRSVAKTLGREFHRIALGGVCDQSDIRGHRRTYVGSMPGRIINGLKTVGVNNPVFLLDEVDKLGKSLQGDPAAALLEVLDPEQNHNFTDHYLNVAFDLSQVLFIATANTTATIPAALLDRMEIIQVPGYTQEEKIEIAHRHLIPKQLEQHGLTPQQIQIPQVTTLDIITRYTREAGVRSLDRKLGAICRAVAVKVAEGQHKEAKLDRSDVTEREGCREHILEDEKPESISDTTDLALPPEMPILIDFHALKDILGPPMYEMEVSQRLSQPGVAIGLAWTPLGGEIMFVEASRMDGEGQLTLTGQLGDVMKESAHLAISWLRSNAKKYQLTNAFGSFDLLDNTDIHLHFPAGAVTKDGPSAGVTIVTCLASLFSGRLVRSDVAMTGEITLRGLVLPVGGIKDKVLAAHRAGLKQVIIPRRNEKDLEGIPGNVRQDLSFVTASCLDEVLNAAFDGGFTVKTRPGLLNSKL
UniProt Q9UN81: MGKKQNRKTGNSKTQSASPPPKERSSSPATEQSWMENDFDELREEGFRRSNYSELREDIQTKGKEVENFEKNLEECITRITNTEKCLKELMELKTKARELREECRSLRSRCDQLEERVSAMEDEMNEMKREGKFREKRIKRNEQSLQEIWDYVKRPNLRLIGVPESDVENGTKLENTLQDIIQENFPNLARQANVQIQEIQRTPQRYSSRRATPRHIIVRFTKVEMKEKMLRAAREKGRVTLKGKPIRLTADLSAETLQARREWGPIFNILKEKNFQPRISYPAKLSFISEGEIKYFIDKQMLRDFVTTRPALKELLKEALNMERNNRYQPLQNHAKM
UniProt Q8NF37: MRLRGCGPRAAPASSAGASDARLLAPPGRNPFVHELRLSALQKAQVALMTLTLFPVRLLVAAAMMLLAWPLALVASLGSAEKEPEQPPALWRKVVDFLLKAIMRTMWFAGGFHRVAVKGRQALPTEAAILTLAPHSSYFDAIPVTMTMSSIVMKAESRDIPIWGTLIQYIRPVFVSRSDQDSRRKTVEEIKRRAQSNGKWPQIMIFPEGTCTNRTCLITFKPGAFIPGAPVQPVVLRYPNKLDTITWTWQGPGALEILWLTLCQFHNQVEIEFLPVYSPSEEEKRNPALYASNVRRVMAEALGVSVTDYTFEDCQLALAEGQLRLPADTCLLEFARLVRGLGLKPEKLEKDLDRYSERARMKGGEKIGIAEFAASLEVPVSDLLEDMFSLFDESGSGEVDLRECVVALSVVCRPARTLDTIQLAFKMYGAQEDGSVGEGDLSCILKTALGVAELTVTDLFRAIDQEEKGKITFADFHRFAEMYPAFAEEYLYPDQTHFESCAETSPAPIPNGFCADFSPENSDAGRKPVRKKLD
UniProt Q8N3Y3: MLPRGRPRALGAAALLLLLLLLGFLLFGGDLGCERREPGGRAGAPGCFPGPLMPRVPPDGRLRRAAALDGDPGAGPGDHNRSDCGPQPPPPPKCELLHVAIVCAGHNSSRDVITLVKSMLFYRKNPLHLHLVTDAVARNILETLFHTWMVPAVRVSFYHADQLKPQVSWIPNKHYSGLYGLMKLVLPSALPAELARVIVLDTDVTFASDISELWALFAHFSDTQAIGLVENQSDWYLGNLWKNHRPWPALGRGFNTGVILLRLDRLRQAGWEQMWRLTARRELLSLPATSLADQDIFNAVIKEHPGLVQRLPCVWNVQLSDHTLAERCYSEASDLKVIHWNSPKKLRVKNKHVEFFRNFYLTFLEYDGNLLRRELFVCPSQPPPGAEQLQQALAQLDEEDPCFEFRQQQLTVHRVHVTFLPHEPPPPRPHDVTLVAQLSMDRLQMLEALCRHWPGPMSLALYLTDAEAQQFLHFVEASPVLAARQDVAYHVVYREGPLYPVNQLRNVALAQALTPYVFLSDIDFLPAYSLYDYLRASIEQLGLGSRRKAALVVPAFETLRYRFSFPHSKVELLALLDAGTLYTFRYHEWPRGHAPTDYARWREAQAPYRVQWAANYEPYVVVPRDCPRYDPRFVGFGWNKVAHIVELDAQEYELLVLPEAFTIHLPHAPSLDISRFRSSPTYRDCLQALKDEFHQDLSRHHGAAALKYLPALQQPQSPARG
UniProt Q9P244: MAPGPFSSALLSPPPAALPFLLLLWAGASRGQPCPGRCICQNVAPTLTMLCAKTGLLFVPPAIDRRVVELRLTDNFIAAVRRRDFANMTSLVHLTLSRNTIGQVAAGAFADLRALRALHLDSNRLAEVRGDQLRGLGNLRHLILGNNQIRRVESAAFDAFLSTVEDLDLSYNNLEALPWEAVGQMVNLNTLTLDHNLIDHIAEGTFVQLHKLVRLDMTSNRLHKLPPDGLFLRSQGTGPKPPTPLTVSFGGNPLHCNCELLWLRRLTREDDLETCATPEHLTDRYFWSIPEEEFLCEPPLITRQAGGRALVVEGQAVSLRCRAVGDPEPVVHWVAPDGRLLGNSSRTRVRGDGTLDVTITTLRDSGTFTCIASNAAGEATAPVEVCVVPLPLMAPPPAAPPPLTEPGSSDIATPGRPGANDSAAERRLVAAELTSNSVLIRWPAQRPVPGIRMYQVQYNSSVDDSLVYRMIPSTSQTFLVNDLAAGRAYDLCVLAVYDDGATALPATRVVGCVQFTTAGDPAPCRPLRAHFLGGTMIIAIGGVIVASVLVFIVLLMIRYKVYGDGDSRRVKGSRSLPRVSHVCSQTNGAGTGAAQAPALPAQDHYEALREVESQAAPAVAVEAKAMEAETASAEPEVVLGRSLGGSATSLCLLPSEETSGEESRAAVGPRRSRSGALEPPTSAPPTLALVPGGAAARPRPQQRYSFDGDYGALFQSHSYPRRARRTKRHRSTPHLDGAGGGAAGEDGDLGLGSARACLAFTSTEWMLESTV
UniProt Q96GY3: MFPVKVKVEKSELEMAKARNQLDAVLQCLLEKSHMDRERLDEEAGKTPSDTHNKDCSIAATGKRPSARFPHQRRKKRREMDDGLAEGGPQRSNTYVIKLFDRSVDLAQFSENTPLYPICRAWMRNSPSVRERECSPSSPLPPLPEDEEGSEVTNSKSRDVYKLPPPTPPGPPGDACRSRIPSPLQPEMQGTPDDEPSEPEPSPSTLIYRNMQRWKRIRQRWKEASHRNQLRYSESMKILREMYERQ
UniProt P02545: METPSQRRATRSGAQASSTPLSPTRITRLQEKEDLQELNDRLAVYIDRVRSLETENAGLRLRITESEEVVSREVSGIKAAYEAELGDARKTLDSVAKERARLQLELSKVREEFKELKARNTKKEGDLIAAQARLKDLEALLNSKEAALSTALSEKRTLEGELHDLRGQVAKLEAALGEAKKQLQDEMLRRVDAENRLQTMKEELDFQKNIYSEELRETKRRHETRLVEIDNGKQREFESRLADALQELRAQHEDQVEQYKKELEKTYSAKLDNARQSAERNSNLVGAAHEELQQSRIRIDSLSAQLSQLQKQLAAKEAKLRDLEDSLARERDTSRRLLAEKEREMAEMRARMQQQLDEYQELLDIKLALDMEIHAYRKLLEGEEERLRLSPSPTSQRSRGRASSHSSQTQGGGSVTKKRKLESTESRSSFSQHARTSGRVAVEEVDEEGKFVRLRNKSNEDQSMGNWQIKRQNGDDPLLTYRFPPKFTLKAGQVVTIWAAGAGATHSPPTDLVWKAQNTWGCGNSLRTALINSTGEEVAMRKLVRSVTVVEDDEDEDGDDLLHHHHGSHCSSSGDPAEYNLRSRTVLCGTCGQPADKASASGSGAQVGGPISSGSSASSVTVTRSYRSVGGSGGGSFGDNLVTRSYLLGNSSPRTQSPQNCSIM
UniProt Q9H6V9: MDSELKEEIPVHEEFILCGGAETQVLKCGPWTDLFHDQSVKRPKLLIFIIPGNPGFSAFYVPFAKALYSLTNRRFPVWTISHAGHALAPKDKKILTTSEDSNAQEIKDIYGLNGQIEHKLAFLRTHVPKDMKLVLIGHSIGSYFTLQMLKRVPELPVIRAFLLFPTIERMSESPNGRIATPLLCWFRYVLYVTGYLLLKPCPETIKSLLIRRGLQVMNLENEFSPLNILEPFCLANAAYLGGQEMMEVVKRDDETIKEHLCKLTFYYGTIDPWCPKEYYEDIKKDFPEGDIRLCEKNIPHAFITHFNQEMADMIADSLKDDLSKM
UniProt Q6P1A2: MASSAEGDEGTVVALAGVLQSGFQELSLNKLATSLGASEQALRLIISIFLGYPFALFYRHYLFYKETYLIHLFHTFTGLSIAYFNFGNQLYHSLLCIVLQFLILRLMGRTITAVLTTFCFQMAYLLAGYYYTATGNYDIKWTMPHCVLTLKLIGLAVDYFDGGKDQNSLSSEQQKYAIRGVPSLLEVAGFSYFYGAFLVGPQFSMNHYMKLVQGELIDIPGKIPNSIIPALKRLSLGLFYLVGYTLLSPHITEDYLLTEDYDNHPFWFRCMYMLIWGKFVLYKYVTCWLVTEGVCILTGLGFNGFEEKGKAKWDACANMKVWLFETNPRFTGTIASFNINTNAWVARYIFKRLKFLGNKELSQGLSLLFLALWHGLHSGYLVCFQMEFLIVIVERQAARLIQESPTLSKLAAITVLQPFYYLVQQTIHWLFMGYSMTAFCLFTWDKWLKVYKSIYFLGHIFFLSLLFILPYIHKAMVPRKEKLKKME
UniProt P01130: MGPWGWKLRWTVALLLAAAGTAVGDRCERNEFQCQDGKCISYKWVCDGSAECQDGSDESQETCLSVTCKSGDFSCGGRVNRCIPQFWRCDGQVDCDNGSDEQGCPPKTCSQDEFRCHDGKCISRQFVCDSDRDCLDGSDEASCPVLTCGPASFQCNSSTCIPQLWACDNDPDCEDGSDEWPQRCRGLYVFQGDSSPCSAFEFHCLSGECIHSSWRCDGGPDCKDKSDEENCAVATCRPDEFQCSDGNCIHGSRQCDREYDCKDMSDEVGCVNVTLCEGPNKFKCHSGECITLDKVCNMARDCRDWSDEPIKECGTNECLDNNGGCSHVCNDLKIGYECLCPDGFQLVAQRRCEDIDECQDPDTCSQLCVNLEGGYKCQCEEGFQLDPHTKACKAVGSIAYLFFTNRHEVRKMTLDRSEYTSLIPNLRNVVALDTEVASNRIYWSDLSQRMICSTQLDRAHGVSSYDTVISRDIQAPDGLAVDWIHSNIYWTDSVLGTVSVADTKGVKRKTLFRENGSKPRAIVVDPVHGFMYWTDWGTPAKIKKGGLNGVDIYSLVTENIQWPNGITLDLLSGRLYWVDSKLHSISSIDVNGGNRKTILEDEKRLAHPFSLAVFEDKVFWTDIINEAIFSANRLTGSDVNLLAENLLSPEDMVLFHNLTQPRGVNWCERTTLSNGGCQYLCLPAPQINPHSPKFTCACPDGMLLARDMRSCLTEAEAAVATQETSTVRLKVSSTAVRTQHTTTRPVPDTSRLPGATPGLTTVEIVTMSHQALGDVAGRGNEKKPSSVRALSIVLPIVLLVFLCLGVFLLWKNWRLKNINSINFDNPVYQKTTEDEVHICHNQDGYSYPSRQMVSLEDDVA
UniProt A6NK58: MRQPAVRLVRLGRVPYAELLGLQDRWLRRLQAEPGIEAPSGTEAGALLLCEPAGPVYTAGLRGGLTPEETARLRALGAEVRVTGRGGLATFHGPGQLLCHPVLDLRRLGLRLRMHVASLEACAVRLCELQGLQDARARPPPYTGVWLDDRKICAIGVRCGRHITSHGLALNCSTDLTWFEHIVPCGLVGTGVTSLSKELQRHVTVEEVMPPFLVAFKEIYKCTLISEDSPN

Columns and labels:
Assay in all cases: log2 fold change, soluble protein after heating vs DMSO (PISA); higher = thermal stabilisation; K562 cells, 10 uM, 30 min; active = over 0.2 and 3.5 SD of the protein, either way, in both replicates (recomputed)
[1] = compound: CS(=O)(=O)c1ccc(-c2cnc(N)c(C(=O)Nc3ccccc3)n2)cc1
In short: (§1)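 K562 cells at 2×10^6 cells/mL were given 10 μM compound for 30 min. Aliquots then went through 3 min of heating across 48°C-58°C, were pooled, and were extracted in PBS with 0.5% NP-40 at 4°C, and the supernatant after 21,000xg for 90 min was quantified by TMTpro 16plex LC-MS/MS with channel sums equalised. Thermal stability relative to control samples, from duplicates, is given as log2 fold change.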

crizotinib = compound: C[C@@H](Oc1cc(-c2cnn(C3CCNCC3)c2)cnc1N)c1c(Cl)ccc(F)c1Cl [crizotinib]
In short: as §1

[2] = compound: C[C@@H]1COCCN1C2=NC(=NC(=C2)C3(CC3)S(=O)(=O)C)C4=C5C=CNC5=CC=C4
In short: as §1

[3] = compound: C[C@H](C1=CC=C(C=C1)C(=O)NC2=C3C=CNC3=NC=C2)N
In short: as §1

gandotinib = compound: Cc1cc(Nc2cc(CN3CCOCC3)c3nc(C)c(Cc4ccc(Cl)cc4F)n3n2)n[nH]1 [gandotinib]
In short: as §1

[4] = compound: Cc1cc(SCc2sc(-c3ccc(C(F)(F)F)cc3)nc2C)ccc1OCC(=O)O
In short: as §1

doramapimod = compound: Cc1ccc(-n2nc(C(C)(C)C)cc2NC(=O)Nc2ccc(OCCN3CCOCC3)c3ccccc23)cc1 [doramapimod]
In short: as §1

ispinesib = compound: Cc1ccc(C(=O)N(CCCN)[C@@H](c2nc3cc(Cl)ccc3c(=O)n2Cc2ccccc2)C(C)C)cc1 [ispinesib]
In short: as §1

duvelisib = compound: C[C@H](Nc1ncnc2nc[nH]c12)c1cc2cccc(Cl)c2c(=O)n1-c1ccccc1 [duvelisib]
In short: as §1

tozasertib = compound: Cc1cc(Nc2cc(N3CCN(C)CC3)nc(Sc3ccc(NC(=O)C4CC4)cc3)n2)n[nH]1 [tozasertib]
In short: as §1

LONP2 (UniProt Q86WA8)
log2 fold change [1]: inactive: -0.004 | log2 fold change (crizotinib): inactive: 0.072 | log2 fold change [2]: inactive: 0.026 | log2 fold change [3]: inactive: 0.113 | log2 fold change (gandotinib): inactive: 0.017 | log2 fold change [4]: inactive: -0.094 | log2 fold change (doramapimod): inactive: 0.073 | log2 fold change (ispinesib): inactive: 0.092

L1RE1 (UniProt Q9UN81)
log2 fold change [1]: inactive: -0.211 | log2 fold change (crizotinib): inactive: 0.157 | log2 fold change [2]: inactive: -0.283 | log2 fold change [3]: inactive: 0.144 | log2 fold change (duvelisib): inactive: -0.011 | log2 fold change (tozasertib): inactive: 0.209 | log2 fold change [4]: inactive: 0.012 | log2 fold change (doramapimod): inactive: 0.06 | log2 fold change (ispinesib): inactive: -0.023

LRIG2 (UniProt O94898)
log2 fold change [1]: inactive: -0.009 | log2 fold change (crizotinib): inactive: 0 | log2 fold change [2]: inactive: -0.012 | log2 fold change [3]: inactive: 0.023 | log2 fold change (duvelisib): inactive: 0.033 | log2 fold change (gandotinib): inactive: 0.01 | log2 fold change (tozasertib): inactive: 0.025 | log2 fold change [4]: inactive: 0.11 | log2 fold change (doramapimod): inactive: -0.017 | log2 fold change (ispinesib): inactive: 0.052

LPCAT1 (UniProt Q8NF37)
log2 fold change [1]: inactive: 0.052 | log2 fold change (crizotinib): inactive: -0.058 | log2 fold change [2]: inactive: 0.088 | log2 fold change [3]: inactive: -0.035 | log2 fold change (duvelisib): inactive: 0.041 | log2 fold change (gandotinib): inactive: -0.199 | log2 fold change (tozasertib): inactive: -0.067 | log2 fold change [4]: inactive: -0.023 | log2 fold change (doramapimod): inactive: -0.06 | log2 fold change (ispinesib): inactive: 0.077

LPIN3 isoform 2 (UniProt Q9BQK8)
log2 fold change [1]: inactive: 0.016 | log2 fold change [2]: inactive: 0.125 | log2 fold change [3]: inactive: 0.011 | log2 fold change (gandotinib): inactive: -0.059 | log2 fold change [4]: inactive: 0.015 | log2 fold change (ispinesib): inactive: -0.037

LARGE2 (UniProt Q8N3Y3)
log2 fold change [1]: inactive: 0.018 | log2 fold change (crizotinib): inactive: 0.077 | log2 fold change (doramapimod): inactive: 0.055

LARP4 isoform 4 (UniProt Q71RC2)
log2 fold change [1]: inactive: -0.027 | log2 fold change (crizotinib): inactive: -0.098 | log2 fold change [2]: active: -0.308 | log2 fold change [3]: inactive: 0.177 | log2 fold change (gandotinib): inactive: 0 | log2 fold change [4]: inactive: 0.06 | log2 fold change (doramapimod): inactive: 0.104 | log2 fold change (ispinesib): inactive: -0.237

LRFN1 (UniProt Q9P244)
log2 fold change [1]: inactive: 0.108 | log2 fold change (crizotinib): inactive: -0.006 | log2 fold change [2]: inactive: -0.15 | log2 fold change [3]: inactive: -0.198 | log2 fold change [4]: inactive: 0.009 | log2 fold change (doramapimod): inactive: -0.09 | log2 fold change (ispinesib): inactive: 0.102

LIN37 (UniProt Q96GY3)
log2 fold change [1]: inactive: 0.204 | log2 fold change (crizotinib): inactive: -0.105 | log2 fold change (gandotinib): inactive: 0.121 | log2 fold change (doramapimod): inactive: -0.042

LMNA (UniProt P02545)
log2 fold change [1]: inactive: -0.054 | log2 fold change (crizotinib): inactive: 0.064 | log2 fold change [2]: inactive: 0.102 | log2 fold change [3]: active: -0.231 | log2 fold change (gandotinib): inactive: -0.098 | log2 fold change [4]: inactive: -0.035 | log2 fold change (doramapimod): inactive: 0.018 | log2 fold change (ispinesib): active: 0.214

LDAH isoform 2 (UniProt Q9H6V9)
log2 fold change [1]: inactive: 0.052 | log2 fold change (crizotinib): active: -0.308 | log2 fold change [2]: inactive: 0.064 | log2 fold change [3]: inactive: -0.035 | log2 fold change (gandotinib): inactive: -0.001 | log2 fold change [4]: inactive: 0.204 | log2 fold change (doramapimod): inactive: 0.019 | log2 fold change (ispinesib): active: -0.438

LPCAT3 (UniProt Q6P1A2)
log2 fold change [1]: inactive: 0.091 | log2 fold change (crizotinib): inactive: -0.121 | log2 fold change [2]: inactive: 0.171 | log2 fold change [3]: inactive: 0.006 | log2 fold change (gandotinib): inactive: -0.167 | log2 fold change [4]: inactive: 0.027 | log2 fold change (doramapimod): inactive: -0.042 | log2 fold change (ispinesib): active: -0.696

LDLR (UniProt P01130)
log2 fold change [1]: inactive: -0.005 | log2 fold change (crizotinib): active: -0.363 | log2 fold change [2]: inactive: -0.05 | log2 fold change [3]: inactive: -0.045 | log2 fold change (gandotinib): inactive: -0.038 | log2 fold change [4]: inactive: -0.094 | log2 fold change (doramapimod): inactive: -0.017 | log2 fold change (ispinesib): inactive: -0.052

LIPT2 (UniProt A6NK58)
log2 fold change [1]: inactive: -0.015 | log2 fold change [2]: inactive: -0.142 | log2 fold change (duvelisib): inactive: -0.051 | log2 fold change (tozasertib): inactive: -0.017 | log2 fold change [4]: inactive: 0.041
